The target in test [1] is recombinant human tissue-type plasminogen activator (tPA) (human) (UniProt P00750). As to the kind of experiment: affinity chromatography, #109 on EAH Sepharose 4B, tPA added to human plasma standard.
For test [2] the target is unchanged. As to the kind of experiment: affinity chromatography, #109 on Emphaze Ultralink beads, 1 M NaCl in all buffers.

Amino acid sequences for entries named in this document (tags omitted). Residues count along the entry.
UniProt P00750, residues 36-562: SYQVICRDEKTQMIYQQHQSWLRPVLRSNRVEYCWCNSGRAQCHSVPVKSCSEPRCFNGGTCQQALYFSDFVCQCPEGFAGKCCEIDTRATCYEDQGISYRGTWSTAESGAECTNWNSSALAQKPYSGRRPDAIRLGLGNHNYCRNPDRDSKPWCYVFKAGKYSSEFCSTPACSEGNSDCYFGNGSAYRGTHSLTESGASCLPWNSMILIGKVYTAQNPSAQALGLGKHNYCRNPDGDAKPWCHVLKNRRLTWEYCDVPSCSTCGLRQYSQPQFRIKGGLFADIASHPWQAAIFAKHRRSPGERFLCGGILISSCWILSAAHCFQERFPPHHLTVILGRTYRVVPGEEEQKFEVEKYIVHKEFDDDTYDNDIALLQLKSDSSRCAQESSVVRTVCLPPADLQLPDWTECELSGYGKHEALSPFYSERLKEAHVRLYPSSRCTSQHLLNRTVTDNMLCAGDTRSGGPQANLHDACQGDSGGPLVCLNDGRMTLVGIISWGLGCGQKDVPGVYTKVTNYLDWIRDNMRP

These are yes or no findings as the source states them, for the method shown. Some entries that bind do so weakly or less than the wild type.

The record followed here is patent US20030162942A1.

B1: CMTI analogue #109 (free polypeptide expressed in Pichia pastoris) (designed binder)
chain: RLCPKTDLGCMKDSDCLAECVCLEHGYCG
For B1, the binding entry in test [1] and in test [2] was “binds” each time.
